Drawing on patent JP2014094898A, this text covers binding for one molecule.

Sequences of proteins named here, by UniProt entry; tags and fusion partners are left off.
UniProt P29351: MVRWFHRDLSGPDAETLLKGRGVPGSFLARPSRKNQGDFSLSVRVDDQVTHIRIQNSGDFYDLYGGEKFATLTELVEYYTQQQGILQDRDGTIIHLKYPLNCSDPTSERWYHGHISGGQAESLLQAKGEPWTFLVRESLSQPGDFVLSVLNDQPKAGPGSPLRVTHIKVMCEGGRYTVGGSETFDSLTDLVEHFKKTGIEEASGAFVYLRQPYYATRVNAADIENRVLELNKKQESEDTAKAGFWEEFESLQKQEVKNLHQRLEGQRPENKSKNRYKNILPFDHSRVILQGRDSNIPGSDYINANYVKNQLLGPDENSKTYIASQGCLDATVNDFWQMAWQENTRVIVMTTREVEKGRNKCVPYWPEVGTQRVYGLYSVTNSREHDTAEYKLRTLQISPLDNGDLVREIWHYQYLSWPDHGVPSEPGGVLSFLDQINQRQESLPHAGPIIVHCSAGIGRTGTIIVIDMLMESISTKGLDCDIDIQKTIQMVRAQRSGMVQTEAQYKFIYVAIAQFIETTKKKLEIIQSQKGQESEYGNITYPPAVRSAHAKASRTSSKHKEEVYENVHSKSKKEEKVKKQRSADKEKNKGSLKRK

No constants are given. Whether binding was seen depends on the method and setting. Binding seen in cells or lysates may run through a third protein. Some binding calls cover weakened binding; strength is not graded here.

In the test the target is SHP−1 (mouse) (UniProt P29351). Nature of the test: co-immunoprecipitation from BMMC lysates with TX41, immunoblot with anti-SHP-1; no recruitment when D89E MFG-E8 was present. Background: In western blotting, separated proteins are transferred to a membrane and probed.

B1: マウスCD300a(マウス細胞の内在性) (receptor, mouse, UniProt Q6SJQ0 28-318, looked up)
chain: LHGPSTMSGSVGESLSVSCRYEEKFKTKDKYWCRVSLKILCKDIVKTSSSEEARSGRVTIRDHPDNLTFTVTYESLTLEDADTYMCAVDISLFDGSLGFDKYFKIELSVVPSEDPVSSPGPTLETPVVSTSLPTKGPALGSNTEGHREHDYSQGLRLPALLSVLALLLFLLVGTSLLAWRMFQKRLVKADRHPELSQNLRQASEQNECQYVNLQLHTWSLREEPVLPSQVEVVEYSTLALPQEELHYSSVAFNSQRQDSHANGDSLHQPQDQKAEYSEIQKPRKGLSDLYL
For the molecule B1, the binding entry is “binds”.
